Measured values reported in US9295629B2 (CAREGEN CO., LTD., priority 2011, dated 2016).
Where no end group is shown, it is not given here.

System: fibroblasts
Test: Immunostaining for presence of the peptide in fibroblasts
Assay type: cell-based
Conditions: fibroblasts treated with peptide, immunostaining (FIG. 7c)

| Substance | presence of the peptide in cells |
| --- | --- |
| peptide-4: WNT-derived peptide, amino acid sequence LCCGRGHNVL (WNT-derived peptide 4) | presence of the peptide in cells |
| peptide-3: WNT-derived peptide, amino acid sequence AERRRELCRC (WNT-derived peptide 3) | presence of the peptide in cells |
| LCCGRGHRTRTQR (cysteine pairing not given here) [peptide-1] | presence of the peptide in cells |
| peptide-2: WNT-derived peptide, amino acid sequence LCCGRGHNAR (WNT-derived peptide 2) | presence of the peptide in cells |
